Assay results from patent publication US9949960B2, “Pharmaceutical composition for preventing or treating muscle weakness-related diseases, containing butylpyridinium or derivative thereof” (KOREA RESEARCH INSTITUTE OF BIOSCIENCE AND BIOTECHNOLOGY, priority 2014, dated 2018).

Legend:
[1] = tested on: 6-month-old male MDX mice; conditions: 1.7 mg/kg (mouse) oral for 4 weeks, compared to control group; FIG. 15
[2] = tested on: 20-month-old C57BL/6 aged mice, immobilization model; conditions: 1.7 mg/kg (mouse) oral, 20-month-old mice, compared to control group; FIG. 14
[3] = tested on: 20-month-old male C57BL/6 aged mice, immobilization model; conditions: oral, concentration-dependent, 20-month-old mice, tests 5 and 12 days after immobilization, compared to control group; FIG. 13

CCCCCCCCCCCCCCCC[n+]1ccccc1 [cetylpyridinium chloride]
motor ability (rota-rod and treadmill tests) in MDX mice [1]: improved | cross-sectional area of the muscle (TA) in aged mice [2]: increased | motor ability (treadmill) in aged mice [3]: improved
